Results are given in words; binding and its absence hold for the method and conditions named. In cells and extracts the contact can be indirect. Some entries that bind do so weakly or less than the wild type. Sequences can lack the tags named with a protein.
Target: T1, GPRASP2-GFP (mouse G-protein-coupled receptor associated sorting protein 2 fused to GFP) (mouse) (UniProt Q8BUY8)
T1 sequence: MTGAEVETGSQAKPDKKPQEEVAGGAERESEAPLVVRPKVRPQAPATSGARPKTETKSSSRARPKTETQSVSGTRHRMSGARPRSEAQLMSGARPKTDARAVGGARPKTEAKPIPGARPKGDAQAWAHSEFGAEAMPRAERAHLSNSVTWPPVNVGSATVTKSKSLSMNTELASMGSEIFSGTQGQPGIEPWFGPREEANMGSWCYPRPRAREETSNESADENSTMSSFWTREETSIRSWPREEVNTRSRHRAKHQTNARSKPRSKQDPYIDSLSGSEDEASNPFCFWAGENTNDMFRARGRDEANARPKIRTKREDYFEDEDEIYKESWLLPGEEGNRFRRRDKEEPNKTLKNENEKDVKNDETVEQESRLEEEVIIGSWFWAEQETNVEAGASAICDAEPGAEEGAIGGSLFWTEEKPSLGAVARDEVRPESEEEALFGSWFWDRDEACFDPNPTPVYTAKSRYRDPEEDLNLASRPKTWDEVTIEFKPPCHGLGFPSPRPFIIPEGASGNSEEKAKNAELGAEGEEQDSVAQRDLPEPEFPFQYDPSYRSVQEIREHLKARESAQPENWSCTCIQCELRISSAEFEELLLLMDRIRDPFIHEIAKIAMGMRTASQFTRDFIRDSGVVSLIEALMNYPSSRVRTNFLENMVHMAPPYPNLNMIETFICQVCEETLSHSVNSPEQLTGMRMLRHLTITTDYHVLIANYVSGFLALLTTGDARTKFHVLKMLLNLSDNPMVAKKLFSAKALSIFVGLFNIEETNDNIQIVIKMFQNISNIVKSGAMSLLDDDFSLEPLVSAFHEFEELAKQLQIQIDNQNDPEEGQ
Assay: co-IP; HT-22 cells co-transfected with pmGluR5b and pGPRASP2-GFP, 48 h; control conditions or 100 µM DHPG for 5 or 30 min; lysis in TEEN buffer (25 mM Tris pH 7.4, 1 mM EGTA, 1 mM EDTA, 150 mM NaCl, 1% Triton); 800 µg extract with anti-GPRASP2 antibody or control IgG overnight at 4 °C, Sepharose A beads; western blot

Amino acid sequences for entries named in this document (tags omitted). A change or cut given only in a name is not applied to a line headed by its entry. Residues count along the entry.
UniProt Q3UVX5, residues 19-1203: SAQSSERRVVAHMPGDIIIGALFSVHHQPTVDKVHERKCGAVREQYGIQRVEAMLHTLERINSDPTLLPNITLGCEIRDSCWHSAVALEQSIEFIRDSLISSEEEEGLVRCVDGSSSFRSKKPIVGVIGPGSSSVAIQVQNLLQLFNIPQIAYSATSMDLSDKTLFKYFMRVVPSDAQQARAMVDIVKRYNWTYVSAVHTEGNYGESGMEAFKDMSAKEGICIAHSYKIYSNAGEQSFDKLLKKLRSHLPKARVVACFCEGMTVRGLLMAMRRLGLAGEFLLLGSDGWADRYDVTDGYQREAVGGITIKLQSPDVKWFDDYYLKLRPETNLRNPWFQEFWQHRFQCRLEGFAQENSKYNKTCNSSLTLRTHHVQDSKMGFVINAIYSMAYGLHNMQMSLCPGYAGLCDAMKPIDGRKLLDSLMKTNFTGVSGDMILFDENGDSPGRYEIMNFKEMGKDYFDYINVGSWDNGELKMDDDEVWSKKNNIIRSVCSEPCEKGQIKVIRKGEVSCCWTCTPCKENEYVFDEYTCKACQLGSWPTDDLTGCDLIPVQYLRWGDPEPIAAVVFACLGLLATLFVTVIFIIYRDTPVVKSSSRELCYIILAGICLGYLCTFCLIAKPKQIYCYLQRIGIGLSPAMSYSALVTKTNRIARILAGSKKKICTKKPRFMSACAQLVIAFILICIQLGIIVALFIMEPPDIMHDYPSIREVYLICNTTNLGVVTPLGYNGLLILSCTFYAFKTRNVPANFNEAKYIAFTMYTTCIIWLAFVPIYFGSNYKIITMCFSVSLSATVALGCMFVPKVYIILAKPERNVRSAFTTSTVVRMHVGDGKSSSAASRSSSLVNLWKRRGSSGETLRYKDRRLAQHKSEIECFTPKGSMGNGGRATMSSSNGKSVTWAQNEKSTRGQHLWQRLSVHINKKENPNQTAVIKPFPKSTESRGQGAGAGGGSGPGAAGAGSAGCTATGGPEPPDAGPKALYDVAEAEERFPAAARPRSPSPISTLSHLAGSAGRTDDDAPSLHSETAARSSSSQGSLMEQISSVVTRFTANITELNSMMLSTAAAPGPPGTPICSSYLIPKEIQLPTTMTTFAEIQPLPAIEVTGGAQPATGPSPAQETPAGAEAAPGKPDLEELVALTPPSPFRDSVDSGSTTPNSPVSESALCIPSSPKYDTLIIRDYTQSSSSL

binding: binds
Substance: mGluR5b (metabotropic glutamate receptor 5, splice variant b) (from UniProt Q3UVX5 19-1203)
